Primary screen of a compound library

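Whole-parasite assay of Trypanosoma brucei over 72 hours; the read-out is not stated. Concentration: 30 µM. Higher reads as stronger inhibition (inferred: compounds with an IC50 in retests scored well above the rest). Values scatter widely below zero; nearly all retest evidence comes from the higher of the two concentrations used. About 64,000 compounds were tested under these conditions; 1.5% (about 940) showed 50% or more at least once.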

Each number is a percent effect as filed.
The record does not define 0% and 100%; most values in the screen are far below 50% and negative numbers occur (in some assays of this library far below -100).
The compounds are a random part of those screened.

compound	percent effect
Cc1nn(C)c2nc(-c3ccccn3)nc(NC[C@@H]3CCCO3)c12	-82.13
Cc1ccc(CN2CCCC3(CCN(Cc4ccoc4)CC3)C2)cc1.O=C(O)C(F)(F)F.O=C(O)C(F)(F)F	31.8
CCc1n[nH]c(NC(=O)c2ccc(Cl)cn2)c1Br	11.91
COc1ccc(-c2csc(-c3cccc(C(=O)O)c3)n2)cc1OC	-8.441
[H][C@]12CCCCN1CCC[C@H]2CCC(=O)NCCc1cc(O)nc(C)n1	6.103
O=C(CCn1c(=O)oc2ccccc21)NCC(O)c1ccc(Cl)cc1 (stereo not drawn)	-11.1
COCCN1CCN(c2cc(OC)ncn2)Cc2ccc(C)nc21	8.68
O=C(NCC1CC1)C1CCC2(CCN(C(=O)c3ccncc3)CC2)O1.O=C(O)C(F)(F)F (stereo not drawn)	-42.23
Cc1nc(NCc2noc(C3CCCO3)n2)c2ccsc2n1 (stereo not drawn)	-5.498
COc1nn(C)cc1C(=O)NCC(=O)Nc1cccnc1	10.41
Cc1nnc2n1CCN(C(=O)c1ccn(-c3cccc(F)c3)n1)C2	-17.93
COCCCNS(=O)(=O)c1ccc(N2CCCCS2(=O)=O)cc1	-10.46
CN(C)C(=O)N1CCN(Cc2cnc(-c3ccsc3)s2)CC1	-4.862
COCCN1CCCC2(CCN(c3nc(C)nc4ccsc34)C2)C1=O (stereo not drawn)	-29.44
O=C(CN1C=Nc2ccccc2S1(=O)=O)NCCc1cccs1	14.42
CNC(=O)C1CCCCN1C(=O)c1sc(-c2ccc(C)o2)nc1C (stereo not drawn)	-23.01
CC(=O)N1C[C@H](NS(=O)(=O)Cc2cccc(Cl)c2)[C@@H](C(C)C)C1	-27.4
COCC1c2c(cnn2CC2CC2)CCN1Cc1nccs1.O=C(O)C(F)(F)F.O=C(O)C(F)(F)F (stereo not drawn)	52.09
C[C@H]1CN(C(=O)c2cccc(F)c2Cl)CCN1S(C)(=O)=O	-44.93
CCc1noc(CNc2ccc(C(=O)N3CCCC3)cc2C)n1	-15.13
CN1CCC(CCc2ccnc(NC(=O)c3ccccn3)c2)CC1	24.76
Cn1cc(CN2CCC[C@]3(C[C@@H](Oc4ccccn4)CO3)C2)cn1.O=C(O)C(F)(F)F.O=C(O)C(F)(F)F	-13.04
Cc1nn(C)c(Cl)c1C1CCCN1C(=O)c1csnn1 (stereo not drawn)	-17.66
O=C(O)C(F)(F)F.[H][C@]12CCCC(OCc3cccnc3)[C@@]1([H])CN(C(=O)c1cscn1)C2 (stereo partly drawn)	14.7
O=C(NC1COC2(CCN(Cc3ccccn3)CC2)C1)c1ccccn1.O=C(O)C(F)(F)F (stereo not drawn)	19.37
OC(c1cccs1)C1CCN(c2ncccn2)CC1 (stereo not drawn)	-45.9
CC(C)c1sc(Cl)nc1C(=O)N1CCN(c2ccccn2)CC1	-26.88
COCc1noc(-c2nn(-c3ccc(F)c(F)c3)c3c2CCC3)n1	19.81
O=C(c1cccnc1)N1CCc2c(nc(N3CCCC3)[nH]c2=O)C1	1.863
Cn1ccc2c(NC(=O)Cn3ncc4c(c3=O)CCCCC4)cccc21	2.064
CCC(=O)NCC(=O)Nc1c(C)cnn1Cc1cc(F)ccc1F	-0.7398
O=C(CCn1ccc2cc(Br)ccc21)/N=c1\[nH]nc(C2CCCO2)s1 (stereo not drawn)	-6.815
[H][C@]12CC[C@@]3(N=C(CC)N(CC(C)C)C3=O)[C@@]1([H])CN(C(=O)NCC(C)C)C2	16.47
CCCC1CCCN(Cc2csc(-c3cnn(C)c3)n2)CC1 (stereo not drawn)	11.72
Cc1nc(C)n(CC2CCCN2Cc2ccn(-c3ccccc3)n2)n1 (stereo not drawn)	99.84
Cl.Cl.c1cnc(NCc2cncc3c2CCN(Cc2cccs2)C3)nc1	-8.466
c1ccn2cc(CN3CCCC(c4ccn[nH]4)C3)nc2c1 (stereo not drawn)	-19.35
COCCN(Cc1ccoc1)C(=O)c1c(F)cccc1Cl	7.845
Cc1ccc(OCCN(C)C(=O)NC(C)c2nncn2C)cc1 (stereo not drawn)	-1.481
CC(NC(=O)CN1C=Nc2ccccc2S1(=O)=O)C1CC1 (stereo not drawn)	-17.7
Cl.N#Cc1ccc(CNCC2(c3ccccc3)CCOCC2)cc1	24.88
Cc1ccc(C)c(CC(=O)NC2CCC(N3C(=O)CCC3=O)CC2)c1 (stereo not drawn)	-2.51
CN(CCn1cccn1)C1CCCN(Cc2noc(C3CC3)n2)C1 (stereo not drawn)	-27.34
Cn1cc(C(=O)NC2CCN(C(=O)NCC3CCSCC3)CC2)cn1	18.32
Cc1cccc(C(=O)N2CCCn3c(CN4CCCCC4)nnc3C2)c1	-19.37
CN(C)C(=O)c1nnc2ccc(N3CCOCC3)cc2n1	-26.02

Repeated from the top, 3 entries:

| compound | percent effect |
|---|---|
| `Cc1nn(C)c2nc(-c3ccccn3)nc(NC[C@@H]3CCCO3)c12` | -82.13 |
| `Cc1ccc(CN2CCCC3(CCN(Cc4ccoc4)CC3)C2)cc1.O=C(O)C(F)(F)F.O=C(O)C(F)(F)F` | 31.8 |
| `CCc1n[nH]c(NC(=O)c2ccc(Cl)cn2)c1Br` | 11.91 |

The values are deposited in ChEMBL (CHEMBL3988442, “University of Dundee, Small-Polar-MMV Screening Library” (2021)).